Patent US12729225B2, “Non-canonical SWI/SNF complex and uses thereof” (Dana-Farber Cancer Institute, Inc., priority 2018, dated 2026)

Test system: mSWI/SNF complexes
Experiment: mSWI/SNF complex purification with HA-tagged baits and mass spectrometry (peptide counts)
Design: species or system human
Settings: 293_HA-BRD7 bait purification, mass spectrometry; for Total: total peptides per co-purified protein; for Unique: unique peptides per co-purified protein

B1: SLC25A6 (protein, UniProt P12236 1-298, looked up)
ADP/ATP translocase 3: MTEQAISFAKDFLAGGIAAAISKTAVAPIERVKLLLQVQHASKQIAADKQYKGIVDCIVRIPKEQGVLSFWRGNLANVIRYFPTQALNFAFKDKYKQIFLGGVDKHTQFWRYFAGNLASGGAAGATSLCFVYPLDFARTRLAADVGKSGTEREFRGLGDCLVKITKSDGIRGLYQGFSVSVQGIIIYRAAYFGVYDTAKGMLPDPKNTHIVVSWMIAQTVTAVAGVVSYPFDTVRRRMMMQSGRKGADIMYTGTVDCWRKIFRDEGGKAFFKGAWSNVLRGMGGAFVLVLYDELKKVI
  Total: 2
  Unique: 1

B2: DARS2 (protein, UniProt Q6PI48 48-645, looked up)
Aspartate--tRNA ligase, …: VVRTNTCGELRSSHLGQEVTLCGWIQYRRQNTFLVLRDFDGLVQVIIPQDESAASVKKILCEAPVESVVQVSGTVISRPAGQENPKMPTGEIEIKVKTAELLNACKKLPFEIKNFVKKTEALRLQYRYLDLRSFQMQYNLRLRSQMVMKMREYLCNLHGFVDIETPTLFKRTPGGAKEFLVPSREPGKFYSLPQSPQQFKQLLMVGGLDRYFQVARCYRDEGSRPDRQPEFTQIDIEMSFVDQTGIQSLIEGLLQYSWPNDKDPVVVPFPTMTFAEVLATYGTDKPDTRFGMKIIDISDVFRNTEIGFLQDALSKPHGTVKAICIPEGAKYLKRKDIESIRNFAADHFNQEILPVFLNANRNWNSPVANFIMESQRLELIRLMETQEEDVVLLTAGEHNKACSLLGKLRLECADLLETRGVVLRDPTLFSFLWVVDFPLFLPKEENPRELESAHHPFTAPHPSDIHLLYTEPKKARSQHYDLVLNGNEIGGGSIRIHNAELQRYILATLLKEDVKMLSHLLQALDYGAPPHGGIALGLDRLICLVTGSPSIRDVIAFPKSFRGHDLMSNTPDSVPPEELKPYHIRVSKPTDSKAERAH
  Total: 2
  Unique: 2

B3: WDR18 (protein, UniProt Q9BV38 1-432, looked up)
WD repeat-containing protein …: MAAPMEVAVCTDSAAPMWSCIVWELHSGANLLTYRGGQAGPRGLALLNGEYLLAAQLGKNYISAWELQRKDQLQQKIMCPGPVTCLTASPNGLYVLAGVAESIHLWEVSTGNLLVILSRHYQDVSCLQFTGDSSHFISGGKDCLVLVWSLCSVLQADPSRIPAPRHVWSHHALPITDLHCGFGGPLARVATSSLDQTVKLWEVSSGELLLSVLFDVSIMAVTMDLAEHHMFCGGSEGSIFQVDLFTWPGQRERSFHPEQDAGKVFKGHRNQVTCLSVSTDGSVLLSGSHDETVRLWDVQSKQCIRTVALKGPVTNAAILLAPVSMLSSDFRPSLPLPHFNKHLLGAEHGDEPRHGGLTLRLGLHQQGSEPSYLDRTEQLQAVLCSTMEKSVLGGQDQLRVRVTELEDEVRNLRKINRDLFDFSTRFITRPAK
  Total: 2
  Unique: 2

B4: CPSF3 (protein, UniProt Q9UKF6 2-684, looked up)
Cleavage and polyadenylation …: SAIPAEESDQLLIRPLGAGQEVGRSCIILEFKGRKIMLDCGIHPGLEGMDALPYIDLIDPAEIDLLLISHFHLDHCGALPWFLQKTSFKGRTFMTHATKAIYRWLLSDYVKVSNISADDMLYTETDLEESMDKIETINFHEVKEVAGIKFWCYHAGHVLGAAMFMIEIAGVKLLYTGDFSRQEDRHLMAAEIPNIKPDILIIESTYGTHIHEKREEREARFCNTVHDIVNRGGRGLIPVFALGRAQELLLILDEYWQNHPELHDIPIYYASSLAKKCMAVYQTYVNAMNDKIRKQININNPFVFKHISNLKSMDHFDDIGPSVVMASPGMMQSGLSRELFESWCTDKRNGVIIAGYCVEGTLAKHIMSEPEEITTMSGQKLPLKMSVDYISFSAHTDYQQTSEFIRALKPPHVILVHGEQNEMARLKAALIREYEDNDEVHIEVHNPRNTEAVTLNFRGEKLAKVMGFLADKKPEQGQRVSGILVKRNFNYHILSPCDLSNYTDLAMSTVKQTQAIPYTGPFNLLCYQLQKLTGDVEELEIQEKPALKVFKNITVIQEPGMVVLEWLANPSNDMYADTVTTVILEVQSNPKIRKGAVQKVSKKLEMHVYSKRLEIMLQDIFGEDCVSVKDDSILSVTVDGKTANLNLETRTVECEEGSEDDESLREMVELAAQRLYEALTPVH
  Total: 2
  Unique: 2

B5: AKAP17A (protein, UniProt Q02040 1-695, looked up)
A-kinase anchor protein 17A: MAAATIVHDTSEAVELCPAYGLYLKPITKMTISVALPQLKQPGKSISNWEVMERLKGMVQNHQFSTLRISKSTMDFIRFEGEVENKSLVKSFLACLDGKTIKLSGFSDILKVRAAEFKIDFPTRHDWDSFFRDAKDMNETLPGERPDTIHLEGLPCKWFALKESGSEKPSEDVLVKVFEKFGEIRNVDIPMLDPYREEMTGRNFHTFSFGGHLNFEAYVQYREYMGFIQAMSALRGMKLMYKGEDGKAVACNIKVSFDSTKHLSDASIKKRQLERQKLQELEQQREEQKRREKEAEERQRAEERKQKELEELERERKREEKLRKREQKQRDRELRRNQKKLEKLQAEEQKQLQEKIKLEERKLLLAQRNLQSIRLIAELLSRAKAVKLREQEQKEEKLRLQQQEERRRLQEAELRRVEEEKERALGLQRKERELRERLLSILLSKKPDDSHTHDELGVAHADLLQPVLDILQTVSSGCVSATTLHPLGGQPPAGAPKESPAHPEADGAPKSVNGSVAEEAPCKEVQSSCRVVPEDGSPEKRCPGGVLSCIPDNNQQPKGIPACEQNVSRKDTRSEQDKCNREPSKGRGRATGDGLADRHKRERSRARRASSREDGRPRKERRPHKKHAYKDDSPRRRSTSPDHTRSRRSHSKDRHRRERSRERRGSASRKHSRHRRRSERSRSRSPSRHRSTWNR
  Total: 2
  Unique: 2

B6: MTHFD1 (protein, UniProt P11586 1-935, looked up)
C-1-tetrahydrofolate …: MAPAEILNGKEISAQIRARLKNQVTQLKEQVPGFTPRLAILQVGNRDDSNLYINVKLKAAEEIGIKATHIKLPRTTTESEVMKYITSLNEDSTVHGFLVQLPLDSENSINTEEVINAIAPEKDVDGLTSINAGKLARGDLNDCFIPCTPKGCLELIKETGVPIAGRHAVVVGRSKIVGAPMHDLLLWNNATVTTCHSKTAHLDEEVNKGDILVVATGQPEMVKGEWIKPGAIVIDCGINYVPDDKKPNGRKVVGDVAYDEAKERASFITPVPGGVGPMTVAMLMQSTVESAKRFLEKFKPGKWMIQYNNLNLKTPVPSDIDISRSCKPKPIGKLAREIGLLSEEVELYGETKAKVLLSALERLKHRPDGKYVVVTGITPTPLGEGKSTTTIGLVQALGAHLYQNVFACVRQPSQGPTFGIKGGAAGGGYSQVIPMEEFNLHLTGDIHAITAANNLVAAAIDARIFHELTQTDKALFNRLVPSVNGVRRFSDIQIRRLKRLGIEKTDPTTLTDEEINRFARLDIDPETITWQRVLDTNDRFLRKITIGQAPTEKGHTRTAQFDISVASEIMAVLALTTSLEDMRERLGKMVVASSKKGEPVSAEDLGVSGALTVLMKDAIKPNLMQTLEGTPVFVHAGPFANIAHGNSSIIADRIALKLVGPEGFVVTEAGFGADIGMEKFFNIKCRYSGLCPHVVVLVATVRALKMHGGGPTVTAGLPLPKAYIQENLELVEKGFSNLKKQIENARMFGIPVVVAVNAFKTDTESELDLISRLSREHGAFDAVKCTHWAEGGKGALALAQAVQRAAQAPSSFQLLYDLKLPVEDKIRIIAQKIYGADDIELLPEAQHKAEVYTKQGFGNLPICMAKTHLSLSHNPEQKGVPTGFILPIRDIRASVGAGFLYPLVGTMSTMPGLPTRPCFYDIDLDPETEQVNGLF
  Total: 2
  Unique: 2

B7: APMAP (protein, UniProt Q9HDC9 2-416, looked up)
Adipocyte plasma …: SEADGLRQRRPLRPQVVTDDDGQAPEAKDGSSFSGRVFRVTFLMLAVSLTVPLLGAMMLLESPIDPQPLSFKEPPLLLGVLHPNTKLRQAERLFENQLVGPESIAHIGDVMFTGTADGRVVKLENGEIETIARFGSGPCKTRDDEPVCGRPLGIRAGPNGTLFVADAYKGLFEVNPWKREVKLLLSSETPIEGKNMSFVNDLTVTQDGRKIYFTDSSSKWQRRDYLLLVMEGTDDGRLLEYDTVTREVKVLLDQLRFPNGVQLSPAEDFVLVAETTMARIRRVYVSGLMKGGADLFVENMPGFPDNIRPSSSGGYWVGMSTIRPNPGFSMLDFLSERPWIKRMIFKLFSQETVMKFVPRYSLVLELSDSGAFRRSLHDPDGLVATYISEVHEHDGHLYLGSFRSPFLCRLSLQAV
  Total: 2
  Unique: 2

B8: TRA2A (protein, UniProt Q13595 2-282, looked up)
Transformer-2 protein homolog …: SDVEENNFEGRESRSQSKSPTGTPARVKSESRSGSRSPSRVSKHSESHSRSRSKSRSRSRRHSHRRYTRSRSHSHSHRRRSRSRSYTPEYRRRRSRSHSPMSNRRRHTGSRANPDPNTCLGVFGLSLYTTERDLREVFSRYGPLSGVNVVYDQRTGRSRGFAFVYFERIDDSKEAMERANGMELDGRRIRVDYSITKRAHTPTPGIYMGRPTHSGGGGGGGGGGGGGGGGRRRDSYYDRGYDRGYDRYEDYDYRYRRRSPSPYYSRYRSRSRSRSYSPRRY
  Total: 2
  Unique: 2

B9: SLC25A22 (protein, UniProt Q9H936 1-323, looked up)
Mitochondrial glutamate …: MADKQISLPAKLINGGIAGLIGVTCVFPIDLAKTRLQNQQNGQRVYTSMSDCLIKTVRSEGYFGMYRGAAVNLTLVTPEKAIKLAANDFFRHQLSKDGQKLTLLKEMLAGCGAGTCQVIVTTPMEMLKIQLQDAGRIAAQRKILAAQGQLSAQGGAQPSVEAPAAPRPTATQLTRDLLRSRGIAGLYKGLGATLLRDVPFSVVYFPLFANLNQLGRPASEEKSPFYVSFLAGCVAGSAAAVAVNPCDVVKTRLQSLQRGVNEDTYSGILDCARKILRHEGPSAFLKGAYCRALVIAPLFGIAQVVYFLGIAESLLGLLQDPQA
  Total: 2
  Unique: 2

B10: RBM23 (protein, UniProt Q86U06 1-439, looked up)
Probable RNA-binding protein …: MASDDFDIVIEAMLEAPYKKEEDEQQRKEVKKDYPSNTTSSTSNSGNETSGSSTIGETSKKKRSRSHNKSRDRKRSRSRDRDRYRRRNSRSRSPGRQCRHRSRSWDRRHGSESRSRDHRREDRVHYRSPPLATGYRYGHSKSPHFREKSPVREPVDNLSPEERDARTVFCMQLAARIRPRDLEDFFSAVGKVRDVRIISDRNSRRSKGIAYVEFCEIQSVPLAIGLTGQRLLGVPIIVQASQAEKNRLAAMANNLQKGNGGPMRLYVGSLHFNITEDMLRGIFEPFGKIDNIVLMKDSDTGRSKGYGFITFSDSECARRALEQLNGFELAGRPMRVGHVTERLDGGTDITFPDGDQELDLGSAGGRFQLMAKLAEGAGIQLPSTAAAAAAAAAQAAALQLNGAVPLGALNPAALTALSPALNLASQCFQLSSLFTPQTM
  Total: 2
  Unique: 2

B11: CSTF2 (protein, UniProt P33240 1-577, looked up)
Cleavage stimulation factor …: MAGLTVRDPAVDRSLRSVFVGNIPYEATEEQLKDIFSEVGPVVSFRLVYDRETGKPKGYGFCEYQDQETALSAMRNLNGREFSGRALRVDNAASEKNKEELKSLGTGAPVIESPYGETISPEDAPESISKAVASLPPEQMFELMKQMKLCVQNSPQEARNMLLQNPQLAYALLQAQVVMRIVDPEIALKILHRQTNIPTLIAGNPQPVHGAGPGSGSNVSMNQQNPQAPQAQSLGGMHVNGAPPLMQASMQGGVPAPGQMPAAVTGPGPGSLAPGGGMQAQVGMPGSGPVSMERGQVPMQDPRAAMQRGSLPANVPTPRGLLGDAPNDPRGGTLLSVTGEVEPRGYLGPPHQGPPMHHVPGHESRGPPPHELRGGPLPEPRPLMAEPRGPMLDQRGPPLDGRGGRDPRGIDARGMEARAMEARGLDARGLEARAMEARAMEARAMEARAMEARAMEVRGMEARGMDTRGPVPGPRGPIPSGMQGPSPINMGAVVPQGSRQVPVMQGTGMQGASIQGGSQPGGFSPGQNQVTPQDHEKAALIMQVLQLTADQIAMLPPEQRQSILILKEQIQKSTGAP
  Total: 2
  Unique: 2
